Inconclusive means that the source gave no clear call. Such entries were picked first, then a sample of the others. Potencies of inconclusive entries are doubtful fits and often do not repeat. Active and inactive are the calls of the source. The call rests on the fitted dose curve; in most records, active means well fitted inhibition curve with a large enough effect; inconclusive means small, poorly fitted or top-dose-only effect; inactive means flat fitted curve, though single readings scatter. Square brackets hold non-standard residues; d marks the D form. Peptide text beside a SMILES is read from it. * marks the point of attachment. Dolaproine = CO[C@@H]([C@@H]1CCCN1)[C@@H](C)C(=O)O; Dil = CC[C@H](C)[C@H](NC)[C@@H](CC(=O)O)OC; NMe2Val = CC(C)[C@@H](C(=O)*)N(C)C; X1 = C[C@@H](N*)[C@@H](O)c1ccccc1; NMeV = CN[C@H](C(=O)O)C(C)C
Experiment: Identification of antibody-drug conjugate (ADC) payloads which are substrates of ATP-binding cassette drug efflux transporters: ABCG2-HEK293-R5 cell line with Ko143
Details: ABCG2-HEK293-R5 with Ko143, CellTiter-Glo viability, 48 h
Description: Antibody-drug conjugates (ADCs) feature an antibody recognizing a specific protein joined to a potent toxic payload. Numerous antibody-drug conjugates have received FDA approval; however, clinical resistance arises. Resistance mechanisms include decreased expression or mutation of the antibody target, impaired payload release, or increased expression of ATP-binding cassette (ABC) efflux transporters associated with multidrug resistance. We therefore sought to characterize the interaction of ABC multidrug transporters with ADC payloads. We performed a high-throughput screen with 27 common ADC payloads using cells lines expressing ABC transporters P-glycoprotein (P-gp, encoded by ABCB1) or ABCG2 (encoded by ABCG2). Confirmatory assays were also performed using cells transfected to express P-gp, ABCG2, or MRP1 (encoded by ABCC1). Several commonly used ADC payloads were substrates of P-gp, including calicheamicin gamma1, monomethyl auristatin E, DM1, and DM4. All the pyrrolobenzodiazepines tested - SJG136, SGD-1882, SG2057, and SG3199 - were substrates of P-gp, ABCG2, and MRP1. […] These findings highlight the risk of transporter-mediated resistance with certain ADC payloads and underscore the importance of selecting payloads that evade ABC transporter recognition in future ADC development.
HEK-293 cells were transfected with empty vector (pcDNA) or vector containing the human ABCB1 (MDR-19), ABCG2 (R-5), or ABCC1 gene (MRP1) and were maintained in EMEM with 2 mg/mL G418 added to maintain transporter expression. The HeLa derivative KB-3-1 and the P-gp overexpressing KB-8-5-11 subline were maintained in DMEM; KB-8-5-11 additionally received 100 ng/mL colchicine. H460 parental cells were obtained from the Division of Cancer Treatment and Diagnosis Tumor Repository, National Cancer Institute at Frederick, MD and were cultured in RPMI. The ABCG2 expressing subline H460 MX20 was generated by selecting H460 cells in 20 nM mitoxantrone. Media in all cases was supplemented with 10% FBS and 1% penicillin-streptomycin. We explored 27 common ADC payloads, in two orthogonal, paired cell line sets-a drug selected and transfected set for each transporter--to identify substrates of the ABC transporters P-gp and ABCG2. Compounds were sourced from Levena Biopharma (San Diego, CA), Selleck Chem (Houston, TX), ChemieTek (Indianapolis, IN), or Microsource Discovery Systems (Gaylordsville, CT). Screening was performed as previously described. Briefly, cells were plated at a density of 500 cells/well in 1536 well plates with compounds added using a 1536-head pin tool (Kalypsys, San Diego CA). Cells were incubated with cytotoxic drugs and processed with CellTiter Glo reagent (Promega, Madison, WI) to determine viability after 48 hours. P-gp substrates were identified by comparing compound activity between paired sets of low-expressing (sensitive) and over-expressing (resistant) cell lines.

SMILES | Potency
COc1cccc2c1C(=O)c1c(O)c3c(c(O)c1C2=O)C[C@@](O)(C(=O)CO)CC3OC1CC(N2CCOC(OC)C2)C(O)C(C)O1 (stereo partly specified) | inconclusive: 3.8 nM [inhibitor, full curve]
CC[C@H](C)[C@@H]([C@@H](CC(=O)N1CCC[C@H]1[C@H](OC)[C@@H](C)C(=O)N[C@H](C)[C@@H](O)c1ccccc1)OC)N(C)C(=O)[C@@H](NC(=O)[C@@H](NC)C(C)C)C(C)C (H-[NMeV]V[Dil][Dolaproine]-X1) | inconclusive: 15 nM [inhibitor, full curve]
CC[C@@]1(O)C(=O)OCc2c1cc1n(c2=O)Cc2cc3ccccc3nc2-1 | inconclusive: 13.4 nM [inhibitor, full curve]
CC[C@H](C)[C@@H]([C@@H](CC(=O)N1CCC[C@H]1[C@H](OC)[C@@H](C)C(=O)N[C@@H](Cc1ccccc1)C(=O)O)OC)N(C)C(=O)[C@@H](NC(=O)[C@H](C(C)C)N(C)C)C(C)C (NMe2Val-V[Dil][Dolaproine]F-OH) | inconclusive: 475 nM [inhibitor, full curve]
COc1cc2cc(c1Cl)N(C)C(=O)C[C@H](OC(=O)[C@H](C)N(C)C(=O)CCS)[C@]1(C)OC1[C@H](C)C1C[C@@](O)(NC(=O)O1)[C@H](OC)/C=C/C=C(\C)C2 (stereo partly specified) | inconclusive: 15 nM [inhibitor, full curve]
COc1cc2cc(c1Cl)N(C)C(=O)C[C@H](OC(=O)C(C)C)[C@]1(C)O[C@H]1[C@H](C)[C@@H]1C[C@@](O)(NC(=O)O1)[C@H](OC)C=CC=C(C)C2 | inconclusive: 1.2 nM [inhibitor, full curve]
CC[C@H](C)[C@H](NC(=O)[C@H]1CCCCN1C)C(=O)N(C)[C@H](C[C@@H](OC(C)=O)c1nc(C(=O)N[C@@H](Cc2ccccc2)C[C@H](C)C(=O)O)cs1)C(C)C | inconclusive: 13.4 nM [inhibitor, full curve]
COc1cc2cc(c1Cl)N(C)C(=O)C[C@H](OC(=O)[C@H](C)N(C)C(=O)CCC(C)(C)S)[C@]1(C)OC1[C@H](C)C1C[C@@](O)(NC(=O)O1)[C@H](OC)/C=C/C=C(\C)C2 (stereo partly specified) | active: 1.7 nM
CC[C@H](C)[C@H](NC(=O)[C@H]1CCCCN1C)C(=O)N(C)[C@H](C[C@@H](OC(C)=O)c1nc(C(=O)O)cs1)C(C)C | inconclusive: 4750 nM [inhibitor, partial curve]
CC[C@H](C)[C@@H]1NC(=O)CNC(=O)[C@H]2Cc3c([nH]c4cc(O)ccc34)S(=O)C[C@H](NC(=O)CNC1=O)C(=O)N[C@@H](CC(N)=O)C(=O)N1C[C@H](O)C[C@H]1C(=O)N[C@@H]([C@@H](C)[C@@H](O)CO)C(=O)N2 (stereo partly specified) | inconclusive: 845 nM [inhibitor, full curve]
CC[C@H](C)[C@@H]([C@@H](CC(=O)N1CCC[C@H]1[C@H](OC)[C@@H](C)C(=O)N[C@H](C)[C@@H](O)c1ccccc1)OC)N(C)C(=O)[C@@H](NC(=O)[C@H](C(C)C)N(C)C)C(C)C | active: 16.9 nM

Single entries from the list:
Potency with COc1cc2cc(c1Cl)N(C)C(=O)C[C@H](OC(=O)[C@H](C)N(C)C(=O)CCC(C)(C)S)[C@]1(C)OC1[C@H](C)C1C[C@@](O)(NC(=O)O1)[C@H](OC)/C=C/C=C(\C)C2 (stereo partly specified) is entered as active: 1.7 nM
Potency with CC[C@H](C)[C@@H]1NC(=O)CNC(=O)[C@H]2Cc3c([nH]c4cc(O)ccc34)S(=O)C[C@H](NC(=O)CNC1=O)C(=O)N[C@@H](CC(N)=O)C(=O)N1C[C@H](O)C[C@H]1C(=O)N[C@@H]([C@@H](C)[C@@H](O)CO)C(=O)N2 (stereo partly specified) is entered as inconclusive: 845 nM [inhibitor, full curve]

From PubChem BioAssay AID2061322 (National Center for Advancing Translational Sciences (NCATS), 2025)
